# Percent effect of library compounds

Amino acid sequences for entries named in this document (tags omitted). Residues count along the entry.
UniProt Q8IDJ8, 1-583: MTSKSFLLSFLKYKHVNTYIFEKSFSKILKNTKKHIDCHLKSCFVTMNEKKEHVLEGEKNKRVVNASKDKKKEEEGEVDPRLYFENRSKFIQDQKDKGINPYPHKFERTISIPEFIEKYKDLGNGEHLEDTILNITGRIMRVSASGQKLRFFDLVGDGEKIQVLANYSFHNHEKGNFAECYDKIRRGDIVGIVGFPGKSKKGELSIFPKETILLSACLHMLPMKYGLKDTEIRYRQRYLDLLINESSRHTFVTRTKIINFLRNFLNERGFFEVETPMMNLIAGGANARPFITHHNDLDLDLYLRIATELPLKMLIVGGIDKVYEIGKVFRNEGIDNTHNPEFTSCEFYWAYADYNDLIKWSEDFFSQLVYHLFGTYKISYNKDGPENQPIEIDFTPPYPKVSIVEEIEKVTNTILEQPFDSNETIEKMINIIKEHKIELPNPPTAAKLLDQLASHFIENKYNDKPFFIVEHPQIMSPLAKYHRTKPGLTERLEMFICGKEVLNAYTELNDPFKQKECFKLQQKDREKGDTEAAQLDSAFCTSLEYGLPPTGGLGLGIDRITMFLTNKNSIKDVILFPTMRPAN

Measurements from “University of Dundee, Small-Polar-MMV Screening Library” (2021), ChEMBL document CHEMBL3988442.

Values are the deposited “Percent Effect”, in %. How 0% and 100% were set is not recorded. Most values in the screen are low, and negative values occur. The compounds are a random part of those screened.

T. brucei: 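Whole-parasite assay of Trypanosoma brucei over 72 hours; the read-out is not stated. Compounds at 30 µM. Higher reads as stronger inhibition (inferred: compounds with an IC50 in retests scored well above the rest). Values scatter widely below zero; nearly all retest evidence comes from the higher of the two concentrations used. About 64,000 compounds were tested under these conditions; 1.5% (about 940) showed 50% or more at least once.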
PfKRS1: 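Enzyme assay of the cytosolic lysyl-tRNA synthetase in 384-well plates, read by luminescence. Target: Lysine-tRNA ligase, Plasmodium falciparum 3D7 (UniProt Q8IDJ8). Tested at 30 µM. Higher reads as stronger inhibition, judged from the few compounds that gave an IC50. Size under these conditions: about 69,000 compounds, about 49 of them at 50% or above in at least one test.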

Compound: CCC(CO)NC(=O)Nc1cc(F)ccc1SCC(F)F (centres unmarked)
T. brucei: 23.76%
PfKRS1: 3.314%

Compound: CN(C)C(=O)CO[C@H]1CN(Cc2cccc(C#N)c2)[C@@H]2COC[C@H]12
PfKRS1: -0.6554%

Compound: COCc1ncn2c1CN(C(=O)c1cccc3cccnc13)CC2.O=C(O)C(F)(F)F
T. brucei: -84.08%

Compound: COCCCNc1cc(C(=O)N2CCOCC2)ccc1C
T. brucei: -36.75%
PfKRS1: 2.812%

Compound: O=C(CN1CCCC1c1nc(Cc2ccc(F)cc2)no1)NC1CC1 (centres unmarked)
T. brucei: -1.629%
PfKRS1: -0.3788%

Compound: CC(C)Cc1cc(CNc2nc(-c3cccnc3)nc3c2CNC3)no1
T. brucei: -54.29%
PfKRS1: -2.977%

Compound: Cc1cc(CN2CCN(C(=O)NCc3ccc(C)s3)CC2)on1
T. brucei: -6.012%
PfKRS1: 0.8014%

Compound: COc1c(CNCC(O)c2cccc(F)c2)c(C)nn1C (centres unmarked)
PfKRS1: 1.653%

Compound: CCN1CCC(c2nc3ccc(NC4CCC4)cn3n2)CC1.O=C(O)C(F)(F)F
T. brucei: 7.279%

Compound: COCc1cnc2n1CCN(S(=O)(=O)N(C)C)C2C (centres unmarked)
T. brucei: -53.86%
PfKRS1: -0.3506%

Compound: O=C(CCN1CCC(C(=O)c2cc(F)ccc2F)CC1)NC1CC1
T. brucei: 26.11%
PfKRS1: 11.87%

Compound: COCCC(=O)N1CCC(c2noc3nc(C)cc(C(F)(F)F)c23)CC1
T. brucei: -12.98%
PfKRS1: 3.353%

Compound: COc1ccc(C(=O)Nc2cnn(CCN3CCOCC3)c2)c(O)c1
T. brucei: 5.218%
PfKRS1: 0.3384%

Compound: Cc1nc(NCc2cccnc2)c2c(n1)c(C)nn2C
T. brucei: 6.112%
PfKRS1: 0.6785%

Compound: O=C(NCCc1ccccc1F)NCC(O)c1cccc(F)c1 (centres unmarked)
T. brucei: 11.91%
PfKRS1: 0.5235%

Compound: Cc1nc(-c2ccccc2)n(CC(=O)NC2CCCCC2)n1
T. brucei: 1.61%
PfKRS1: 1.341%

Compound: Cc1nc(C)n(CC2CCCN2CCOc2ccc(C#N)cc2)n1 (centres unmarked)
T. brucei: 5.236%
PfKRS1: 11.44%

Compound: Cc1ccc(O[C@@H]2C[C@H]3CN(C(=O)Cc4ccccn4)CCN3C2)cc1
PfKRS1: -3.426%

Compound: Cc1ccc(NC2(C(=O)NCCCc3c(C)n[nH]c3C)CCCC2)cc1
T. brucei: -42.96%
PfKRS1: -2.966%

Compound: CN(C[C@@H]1CCC[C@@H]2CN(Cc3cccnc3)C[C@@H]21)C1CC1
PfKRS1: 1.616%

Compound: Cc1cccc(CN2CC[C@@H]3[C@@H](CO[C@H]3CNc3ncccn3)C2)n1
PfKRS1: 0.6605%

Compound: Cn1nc(CNC(=O)c2ccc3c(c2)OCO3)c2c1CCOC2
T. brucei: -11.51%
PfKRS1: 0.8522%

Compound: [H][C@@]12CN(C(=O)Cc3ccccn3)C[C@]1([H])[C@@H]2CC(=O)Nc1cccnc1
T. brucei: -5.081%

Compound: Cn1cc(CN2CC[C@]3(C[C@H](OCc4ccccn4)CO3)C2)cn1
T. brucei: -36.9%
PfKRS1: 0.3511%

Compound: Cc1cccc(-c2nnn3c2COC(CNCc2nccs2)C3)c1.O=C(O)C(F)(F)F (centres unmarked)
T. brucei: 29.51%

Compound: Cc1ccc(C)c(OCCNC(=O)[C@@H]2CCCCN2)c1
T. brucei: -4.073%
PfKRS1: 1.073%

Compound: CC(=O)N1CCC2(CC1)CN(CC1CC1)c1ccc(F)cc12
T. brucei: 31.52%
PfKRS1: 2.332%

Compound: Cc1ccnc(N2Cc3cnn(Cc4ccc(F)cc4)c3C2)n1
T. brucei: -9.847%
PfKRS1: -2.224%

Compound: CC(=O)NCc1ccc(S(=O)(=O)NC(=O)c2ccc3c(c2)CCO3)s1
T. brucei: -44.35%
PfKRS1: 0.5585%

Compound: COc1ccc(N2CCN(C(=O)NC(C)c3nncn3C)CC2)cc1 (centres unmarked)
T. brucei: 2.86%
PfKRS1: -0.6237%

Compound: CC(C)CNC(=O)c1ccc2c(c1)nc1n2CCN(Cc2ccco2)C1
T. brucei: -20.72%
PfKRS1: 5.665%

Compound: CC(C)(C)c1cc(C[C@H]2CNCC[C@H]2CC(=O)N2CCCCC2)no1
T. brucei: -4.972%
PfKRS1: 2.762%

Compound: CN(Cc1ccco1)C(=O)NC1CCCN(c2ncccn2)C1 (centres unmarked)
T. brucei: -35.4%
PfKRS1: -0.4331%

Compound: [H][C@]12CC[C@@H](Nc3cccnn3)[C@@]1([H])CN(Cc1ccc3cc[nH]c3c1)C2
T. brucei: -16.08%

Compound: O=C(Nc1ccccc1)N1C(CN2CCOCC2)[C@]2(O)CC[C@H]1CC2 (some centres unmarked)
PfKRS1: 2.484%

Compound: CN(Cc1ccc(Cl)s1)C(=O)NCCN1CCCCCC1=O
T. brucei: -51.33%
PfKRS1: 12.37%

Compound: O=C(O)C(F)(F)F.[H][C@@]12CCN(C3CCOCC3)C[C@]1([H])O[C@H](C(=O)N1CCCC1)C2
T. brucei: -37.65%

Compound: CCN(CC)c1ccc2ccc(C(=O)N3CCCCO3)cn12.O=C(O)C(F)(F)F
T. brucei: -74.95%

Compound: CCOc1ccc2[nH]c(=O)c(CN3CCC(N4CCCC4)CC3)cc2c1
T. brucei: -13.26%
PfKRS1: 10.15%

Compound: COc1ccccc1C(C#N)NC(=O)c1cccc2c1oc(=O)n2C (centres unmarked)
T. brucei: -52.9%
PfKRS1: 1.411%

Compound: Cc1cnc(C(=O)N2CCN(Cc3csc(C)n3)CC2)cn1
T. brucei: -29.5%
PfKRS1: 1.939%

Compound: COc1ccc(CN(Cc2cncn2C)CC2CCCO2)cc1OC (centres unmarked)
PfKRS1: 6.223%

Compound: CC(=O)NCc1nnc2n1CCN(Cc1cccs1)C2.O=C(O)C(F)(F)F
T. brucei: -65.08%

The last 2 entries again:

{"compound": "COc1ccc(CN(Cc2cncn2C)CC2CCCO2)cc1OC", "stereo": "centres unmarked", "PfKRS1": 6.223}
{"compound": "CC(=O)NCc1nnc2n1CCN(Cc1cccs1)C2.O=C(O)C(F)(F)F", "T. brucei": -65.08}